Experimental data: PubChem BioAssay AID1159584 (Peter MacCallum Cancer Centre, 2016)

Test: 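Genes that CDH1-null MCF10A cells selectively depend on to survive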 (primary screen)
System: human MCF10A breast epithelial cells, parental and CDH1-null
Reagents: siRNA against human genes
Read-out: 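ATP luminescence (CellTiter-Glo) viability per line relative to mean mock wells over all plates, and the ratio of CDH1-null to parental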
Scale: CDH1-null / parental viability ratio: higher = CDH1-null cells survive relatively better than parental; CDH1-null viability vs mock: higher = more viable CDH1-null cells
Units: CDH1-null viability vs mock in fraction of mock
In all, the deposit lists about 18,000 reagents; this is an unselected part. Not all columns of the deposit are shown. Not given: the amount of reagent, the time to read-out.

Which result is listed for RBBP8 (RB binding protein 8, endonuclease)?
CDH1-null / parental viability ratio: 1; CDH1-null viability vs mock: 0.66

For GPT2 (glutamic--pyruvic transaminase 2), what was measured?
CDH1-null / parental viability ratio: 1.29; CDH1-null viability vs mock: 0.8

For PDE2A (phosphodiesterase 2A), how do the results read?
CDH1-null / parental viability ratio: 1.07; CDH1-null viability vs mock: 1.03

What did the screen give for TMEM59L (transmembrane protein 59 like)?
CDH1-null / parental viability ratio: 0.92; CDH1-null viability vs mock: 0.88

What is on record for IL38 (interleukin 38)?
CDH1-null / parental viability ratio: 0.96; CDH1-null viability vs mock: 0.64

What is on record for TMCO1 (transmembrane and coiled-coil domains 1)?
CDH1-null / parental viability ratio: 1.15; CDH1-null viability vs mock: 1.06

What is on record for RCAN1 (regulator of calcineurin 1)?
CDH1-null / parental viability ratio: 0.74; CDH1-null viability vs mock: 0.64

What did the screen give for R3HDM4 (R3H domain containing 4)?
CDH1-null / parental viability ratio: 0.79; CDH1-null viability vs mock: 0.71

What is on record for RAB27B (RAB27B, member RAS oncogene family)?
CDH1-null / parental viability ratio: 0.81; CDH1-null viability vs mock: 0.78

Which result is listed for NTRK2 (neurotrophic receptor tyrosine kinase 2)?
CDH1-null / parental viability ratio: 0.92; CDH1-null viability vs mock: 0.95

How did the screen score FDCSP (follicular dendritic cell secreted protein)?
CDH1-null / parental viability ratio: 1.07; CDH1-null viability vs mock: 0.81

What is on record for MORF4 (mortality factor 4 (pseudogene))?
CDH1-null / parental viability ratio: 1.37; CDH1-null viability vs mock: 1.19

What is on record for SPANXA2 (SPANX family member A2)?
CDH1-null / parental viability ratio: 1.29; CDH1-null viability vs mock: 0.44

What did the screen give for CCHCR1 (coiled-coil alpha-helical rod protein 1)?
CDH1-null / parental viability ratio: 0.92; CDH1-null viability vs mock: 0.81

What did the screen give for CYFIP1 (cytoplasmic FMR1 interacting protein 1)?
CDH1-null / parental viability ratio: 0.83; CDH1-null viability vs mock: 0.63

Which result is listed for OR4F15 (olfactory receptor family 4 subfamily F member 15)?
CDH1-null / parental viability ratio: 1.26; CDH1-null viability vs mock: 1.08

For CDHR4 (cadherin related family member 4), what was measured?
CDH1-null / parental viability ratio: 1.33; CDH1-null viability vs mock: 0.69

What is on record for MAGEC1 (MAGE family member C1)?
CDH1-null / parental viability ratio: 1.17; CDH1-null viability vs mock: 0.82

For ZNF43 (zinc finger protein 43), what does the deposit list?
CDH1-null / parental viability ratio: 0.74; CDH1-null viability vs mock: 0.54

For INSYN1 (inhibitory synaptic factor 1), what does the deposit list?
CDH1-null / parental viability ratio: 1.29; CDH1-null viability vs mock: 0.8

What is on record for NUDT2 (nudix hydrolase 2)?
CDH1-null / parental viability ratio: 1.22; CDH1-null viability vs mock: 0.82

For DNAJC1 (DnaJ heat shock protein family (Hsp40) member C1), how do the results read?
CDH1-null / parental viability ratio: 1.21; CDH1-null viability vs mock: 0.69

4 entries from above, arranged by “CDH1-null / parental viability ratio”, high to low:
FDCSP (follicular dendritic cell secreted protein) | CDH1-null / parental viability ratio = 1.07; CDH1-null viability vs mock = 0.81
NTRK2 (neurotrophic receptor tyrosine kinase 2) | CDH1-null / parental viability ratio = 0.92; CDH1-null viability vs mock = 0.95
RAB27B (RAB27B, member RAS oncogene family) | CDH1-null / parental viability ratio = 0.81; CDH1-null viability vs mock = 0.78
R3HDM4 (R3H domain containing 4) | CDH1-null / parental viability ratio = 0.79; CDH1-null viability vs mock = 0.71

Further entries follow:
Which result is listed for DPAGT1 (dolichyl-phosphate N-acetylglucosaminephosphotransferase 1)?
CDH1-null / parental viability ratio: 0.8; CDH1-null viability vs mock: 0.8

With LDB3 (LIM domain binding 3), what does the deposit list?
CDH1-null / parental viability ratio: 1.21; CDH1-null viability vs mock: 0.29

What is on record for CALM1 (calmodulin 1)?
CDH1-null / parental viability ratio: 0.83; CDH1-null viability vs mock: 0.6

What did the screen give for PKP4 (plakophilin 4)?
CDH1-null / parental viability ratio: 0.93; CDH1-null viability vs mock: 0.53

With SPINT2 (serine peptidase inhibitor, Kunitz type 2), what does the deposit list?
CDH1-null / parental viability ratio: 0.92; CDH1-null viability vs mock: 0.94

Which result is listed for RPL36 (ribosomal protein L36)?
CDH1-null / parental viability ratio: 1.44; CDH1-null viability vs mock: 0.46

With MTMR9 (myotubularin related protein 9), what was measured?
CDH1-null / parental viability ratio: 1.39; CDH1-null viability vs mock: 1

What is on record for RNF113A (ring finger protein 113A)?
CDH1-null / parental viability ratio: 0.91; CDH1-null viability vs mock: 0.74

For CLDN11 (claudin 11), how do the results read?
CDH1-null / parental viability ratio: 1.06; CDH1-null viability vs mock: 1

Which result is listed for MAN1A1 (mannosidase alpha class 1A member 1)?
CDH1-null / parental viability ratio: 1.3; CDH1-null viability vs mock: 1.14

What did the screen give for TAS2R43 (taste 2 receptor member 43)?
CDH1-null / parental viability ratio: 1.09; CDH1-null viability vs mock: 0.7

What is on record for TBL1Y (transducin beta like 1 Y-linked)?
CDH1-null / parental viability ratio: 1.17; CDH1-null viability vs mock: 0.55

With IGFBP3 (insulin like growth factor binding protein 3), how do the results read?
CDH1-null / parental viability ratio: 0.93; CDH1-null viability vs mock: 0.68
